No constants are given. Whether binding was seen depends on the method and setting. Binding seen in cells or lysates may run through a third protein. Some entries that bind do so weakly or less than the wild type. Where a sequence is shown, tags or fusion partners need not be part of it.
B1: Drosophila PARIS (dPARIS), C-terminal V5-tagged (protein, UniProt Q9VR05 1-346)
chain: MAEICRVCMDISGKLVNIFDARRRTRVSIAEMIAQCTGFEVKRGDLFSEMICPQCYEDVKSAYGIRQTCEESHQFYCRVRDEGIEDALCALLEEEDWEISEDEDARIDSASAADDDGKSDSKKVAFECRECHKKYQRKGTFLRHMRTHMDGQSFPCPYCKRNFRLRVTLKAHMKTHNAAKPYECSHCAKTFAQQSTLQSHERTHTGERPFKCSQCSKTFIKSSDLRRHIRTHGSERPFKCSKCTKTFTRKFHLDNHFRSHTGERPFKCSHCPKAFAMKQHLKQHSRLHLPDRPFRCSHCPKTFRLSSTLKEHKLVHNAERTFKCPHCASFYKQRKTLARHILEIHK
B2: Drosophila parkin (dparkin), N-terminal FLAG tagged (protein, UniProt Q7KTX7 1-482)
chain: MSFIFKFIATFVRKMLELLQFGGKTLTHTLSIYVKTNTGKTLTVNLEPQWDIKNVKELVAPQLGLQPDDLKIIFAGKELSDATTIEQCDLGQQSVLHAIRLRPPVQRQKIQSATLEEEEPSLSDEASKPLNETLLDLQLESEERLNITDEERVRAKAHFFVHCSQCDKLCNGKLRVRCALCKGGAFTVHRDPECWDDVLKSRRIPGHCESLEVACVDNAAGDPPFAEFFFKCAEHVSGGEKDFAAPLNLIKNNIKNVPCLACTDVSDTVLVFPCASQHVTCIDCFRHYCRSRLGERQFMPHPDFGYTLPCPAGCEHSFIEEIHHFKLLTREEYDRYQRFATEEYVLQAGGVLCPQPGCGMGLLVEPDCRKVTCQNGCGYVFCRNCLQGYHIGECLPEGTGASATNSCEYTVDPNRAAEARWDEASNVTIKVSTKPCPKCRTPTERDGGCMHMVCTRAGCGFEWCWVCQTEWTRDCMGAHWFG

How the values were obtained:
[1] = biological target: T1, Drosophila parkin (dparkin), N-terminal FLAG tagged (Drosophila) (UniProt Q7KTX7); test: co-IP; lysates of transfected Drosophila S2 cells (S2 lysis buffer: 50 mM Tris pH 7.5, 150 mM NaCl, 5 mM EDTA, 1% NP-40); overnight incubation with anti-FLAG M2 magnetic beads, three washes; blot for V5
T1 sequence: B2 chain

[2] = biological target: T2, Drosophila PARIS (dPARIS), C-terminal V5-tagged (Drosophila) (UniProt Q9VR05); test: co-IP; reciprocal: lysates of transfected Drosophila S2 cells (S2 lysis buffer: 50 mM Tris pH 7.5, 150 mM NaCl, 5 mM EDTA, 1% NP-40); overnight incubation with anti-V5-tag mAb magnetic beads, three washes; blot for parkin
T2 sequence: B1 chain

Binder | binding [1] | binding [2]
B1 | binds | –
B2 | – | binds
